This is one part of the list.
B1: il2ra_site1_1z92_sap_15_mot_a6da520ff4a02840130205282d0b8d49_0001_af2_000000028_0001_54_65_H_._e060d0886229932d1ce4e0f52036649a_0001_0001_0000200004_0000001_0_0 … (protein)
chain: SSSSSSSEVEEIVREIVEEFGLSEEDKEVLERDAERSLELGFSPKSIKMALERFAELLLSSSSSS
B2: il2ra_site2_3nfp_normal_mot_HHH_b1_05437_000000005_0001_40_57_H_._HHH_b2_08333_0001_0000200013_0000001_0 (protein)
chain: SSSSSEEEEEVRRLIERVEELIKEGNPEEARELLQRATHIAYEAGNSELFFLLAELLYLLASSSS
B3: il2ra_site2_3nfp_sap_20_mot_HHH_b2_06150_000000217_0001_39_53_H_._HHH_b2_03666_af2_0001_0000400026_0000001_0_0001 (protein)
chain: SKTVTIEVEDEEYARRIAERIFVIETETEGSSVTLHLRARNEEAARYVEIAAKLQFPNAEVEIES
B4: il2ra_site1_1z92_sap_27_mot_HHH_b2_02540_000000162_0001_1_16_H_._HHH_b1_06872_0001_0000700033_0000001_0_0001_af2pred_0001_af2pred_1 (protein)
chain: SLEELLEELLEELGVPPEDIKLVKRDLEQAKKLFPPERALRALLAALRVAGDPEAAKAVELVLRH
B5: il2ra_site1_3nfp_sap_14_mot_HHH_b1_02124_000000258_0001_1_20_H_._HHH_b2_08053_0001_0000200008_0000001_0_0001 (protein)
chain: SKILVRFLRDLEKVLGDPEEAVRKVVKDFEKVLNVPPEEAREALKRMLKSVDEELAEEVEELLEK
B6: il2ra_site2_3nfp_normal_mot_HHH_b1_05437_000000005_0001_40_57_H_._HHH_b2_03978_0001_0000200010_0000001_0 (protein)
chain: SSSSSEVEEEVRRILEEAEELYKQGDEEKVRRLLAEATHLAYENRDFEAFALVAEVLYRLASSSS
B7: il2ra_site1_1z92_sap_14_mot_3afbd42359c492d9a5ba12d7e5b15de5_0001_000000167_0001_17_33_H_._HHH_b2_02962_0001_0000500018_0000001_0_0001_af2pred_0001_af2pred_1_sw … (protein)
chain: SLERDAENALKYAPTPRALRKMLEEALKLTGDPEERRKFIEIVEKIARELGNEELEEAAEEALRK
B8: il2ra_site2_3nfp_sap_24_mot_HHH_b1_03777_000000157_0001_42_57_H_._HHH_b1_00199_0001_0000100005_0000001_0_0001 (protein)
chain: SSSSDEVEELLKEIEELLKEGDLYEVAQLLVEATELALELGDEELAREILRLFKLLQERSESSSS
B9: il2ra_site2_2erj_normal_mot_HHH_b1_05907_000000149_0001_1_15_H_._HHH_b1_08271_0001_0000700021_0000001_0_af2pred_0001_af2pred (protein)
chain: SSSSDREEEVQQLAILVVRLKEEGNPEEAREALEEAIELARELGDEERAAFLEVALIAIEQSSSS
B10: il2ra_site2_3nfp_normal_mot_HHH_b1_03516_af2_000000045_0001_38_52_H_._HHH_b1_06009_0001_0000400028_0000001_0 (protein)
chain: SSSSHREDLIRALLILAKRLVEELEDPEERRELERLIEELEREGDPHIAIRLAELLNEINSSSSS
B11: il2ra_site1_2b5i_sap_7_mot_HHH_b1_06833_000000178_0001_1_19_H_._48aadc431a6b245fcc562110268e3d14_0001_0001_0000300016_0000001_0_0001 (protein)
chain: SSSDSEETRFAVRVVWRLRWKYNLSDEDSHYLNEVAVRLLDEGYSEEEIEEILEEEAKKLSSSSS
B12: il2ra_site2_2erj_sap_21_mot_HHH_eva_0049_000000026_0001_1_19_H_._c78f7739fa167d31fea4525f494fb333_0001_0001_0000300034_0000001_0_0001 (protein)
chain: SSSSDEEEEARELAEELERALEEGDEELFRRLAWELLRFAWEYNDELAQRLLSKLFRKKGSSSSS
B13: il2ra_site2_2erj_normal_mot_HHH_eva_0077_000000062_0001_1_20_H_._7893fd715048dbce5e23317e54f1e302_0001_0001_0000500027_0000001_0_af2pred_0001_af2pred (protein)
chain: DEEEALREVAEILGVPPEEVKELVEEAKRLFGDPHAVERFLAARLRTAGVPPEEAERLAELLLRG
B14: il2ra_site1_3nfp_normal_mot_HHH_b1_08723_000000044_0001_1_15_H_._HHH_b1_08624_0001_0000200017_0000001_0 (protein)
chain: SSSSDLHERVEKLFRELFELAQRNDEEEVERVAEELEKLLEQNNNESSLRSVRNALKLLKSSSSS
B15: il2ra_site2_3nfp_sap_29_mot_HHH_b2_05838_af2_000000091_0001_1_20_H_._HHH_b1_03228_0001_0000300014_0000001_0_0001_af2pred_0001_af2pred (protein)
chain: SSSSSSEEEEIRELLERVEQIDDPFEAFAALNRAFELVDRLNNEELRELVRRLARELNEKSSSSS
B16: il2ra_site2_3nfp_sap_8_mot_968ffe68aa11d68c04d2634bf871f227_0001_1_af2_000000211_0001_1_14_H_._ems_3hM_1371_0001_0000200007_0000001_0_0001 (protein)
chain: SSSSSSEEVEKLLEQVKELIEEGNPEEARRVLRRASQLAWELNDAELFFRVAELLFEIHQSSSSS
B17: il2ra_site1_2b5i_normal_mot_f5ff40796168375b462bec8614a1db4a_0001_1_000000138_0001_53_65_H_._HHH_b1_04161_0001_0000400021_0000001_0_af2pred_dldesign_0_af2pred (protein)
chain: SSSSSLRELVEEIIAEVKRLVAEGKLEEARKLAILALRLARKAEDPELVARVEALLETLESSSSS
B18: il2ra_site1_3nfp_normal_mot_HHH_b1_01255_000000106_0001_44_57_H_._b78019874f59408b4808c960a672f6cd_0001_0001_0000100007_0000001_0_af2pred_0001_af2pred_swapped (protein)
chain: SAEEVLLRIVLERPDNPQARAALKILEEAAEKKGDPELKEILEEIKKLIEEGNPEEAQKLLEELR
B19: il2ra_site1_2b5i_sap_9_mot_HHH_b1_08157_af2_000000055_0001_42_55_H_._HHH_b1_02530_af2_0001_0000400057_0000001_0_0001_af2pred_dldesign_0_af2pred (protein)
chain: SSSSDEKYDEIDRLFNEALELKRAGKKEEAKEVLEKAIELAKELNDEKILAELEYLLKKLESSSS

target: il2ra, P01589; test: yeast display titration

Apparent Kd, inactive:
B1 no binding seen
B2 no binding seen
B3 no binding seen
B4 no binding seen
B5 no binding seen
B6 no binding seen
B7 no binding seen
B8 no binding seen
B9 no binding seen
B10 no binding seen
B11 no binding seen
B12 no binding seen
B13 no binding seen
B14 no binding seen
B15 no binding seen
B16 no binding seen
B17 no binding seen
B18 no binding seen
B19 no binding seen

2 records picked at random from the list so far:
Apparent Kd, inactive:
B8 no binding seen
B19 no binding seen
